In patent publication US20230073692A1 (CYTOMX THERAPEUTICS, published 2023):
Results are given in words; binding and its absence hold for the method and conditions named. Binding calls can cover weak binding; strength is not graded here.

Molecular target: SLC34A2
Assay: paralog/homolog binding assessment (FIG. 2)

| Binder | binding |
| --- | --- |
| cHv83-3a23.G1(L328C)k (antibody, V domains shown, the name says L328C in the IgG1 constant region; also called [Ag]AB-2; unconjugated antibody of OT1 / OT#1) VH: EVQLVESGGGLVQPGGSLRLSCAASGFTFSSYVMHWVRQAPGKGLEYVSGVSSSGDSTFYVDSVKGRFTISRDNSKNTLYLQMGSLRAEDMAVYYCARGGITGAPLVFDIWGQGTMVTVSS VL: DIQMTQSPSSLSASVGDRVTITCRASQSISRFLNWYQQKPGKAPKVLIYVTSSLQSGVPSRFSGSGSGTDFTLTISSLQPEDFATYYCQQSYNTPITFGQGTRLEIKR | binds |
| cHv83-1b15.G1(L328C)k (antibody, V domains shown, the name says L328C in the IgG1 constant region; also called [Ag]AB-3; cHv83-1b15.G1k(L328C)k) VH: EVQLVESGGGWVQPGGSLRLSCAASGFTFSSHIMYWVRQAPGKGLEYVSGISSNGLSSYYVDSVKGRFTISRDNSKNLLYVHMGSLKPEDMAMYYCARGGRDRVPAVFDYWGQGTLVTVSS VL: DIQMTQSPSSLSASIGDRVTITCRASQSIGTFLNWYQQKPGKAPKVLIYVASSLQSGVPSRFIGSGSGTDFTLTISSLQPEDFATYYCQQSYSVPITFGQGTRLEIKR | binds |
